Data reported in US20230374508.
For at least one entry, the source does not settle the construct or the ends of the probe. Results from cells or extracts need not show a direct contact. For part of these data: Tags and fusion partners may be left off the protein sequences shown.

Sequences of proteins named here, by UniProt entry; tags and fusion partners are left off. A change or cut given only in a name is not applied to a line headed by its entry.
UniProt Q9UPY3: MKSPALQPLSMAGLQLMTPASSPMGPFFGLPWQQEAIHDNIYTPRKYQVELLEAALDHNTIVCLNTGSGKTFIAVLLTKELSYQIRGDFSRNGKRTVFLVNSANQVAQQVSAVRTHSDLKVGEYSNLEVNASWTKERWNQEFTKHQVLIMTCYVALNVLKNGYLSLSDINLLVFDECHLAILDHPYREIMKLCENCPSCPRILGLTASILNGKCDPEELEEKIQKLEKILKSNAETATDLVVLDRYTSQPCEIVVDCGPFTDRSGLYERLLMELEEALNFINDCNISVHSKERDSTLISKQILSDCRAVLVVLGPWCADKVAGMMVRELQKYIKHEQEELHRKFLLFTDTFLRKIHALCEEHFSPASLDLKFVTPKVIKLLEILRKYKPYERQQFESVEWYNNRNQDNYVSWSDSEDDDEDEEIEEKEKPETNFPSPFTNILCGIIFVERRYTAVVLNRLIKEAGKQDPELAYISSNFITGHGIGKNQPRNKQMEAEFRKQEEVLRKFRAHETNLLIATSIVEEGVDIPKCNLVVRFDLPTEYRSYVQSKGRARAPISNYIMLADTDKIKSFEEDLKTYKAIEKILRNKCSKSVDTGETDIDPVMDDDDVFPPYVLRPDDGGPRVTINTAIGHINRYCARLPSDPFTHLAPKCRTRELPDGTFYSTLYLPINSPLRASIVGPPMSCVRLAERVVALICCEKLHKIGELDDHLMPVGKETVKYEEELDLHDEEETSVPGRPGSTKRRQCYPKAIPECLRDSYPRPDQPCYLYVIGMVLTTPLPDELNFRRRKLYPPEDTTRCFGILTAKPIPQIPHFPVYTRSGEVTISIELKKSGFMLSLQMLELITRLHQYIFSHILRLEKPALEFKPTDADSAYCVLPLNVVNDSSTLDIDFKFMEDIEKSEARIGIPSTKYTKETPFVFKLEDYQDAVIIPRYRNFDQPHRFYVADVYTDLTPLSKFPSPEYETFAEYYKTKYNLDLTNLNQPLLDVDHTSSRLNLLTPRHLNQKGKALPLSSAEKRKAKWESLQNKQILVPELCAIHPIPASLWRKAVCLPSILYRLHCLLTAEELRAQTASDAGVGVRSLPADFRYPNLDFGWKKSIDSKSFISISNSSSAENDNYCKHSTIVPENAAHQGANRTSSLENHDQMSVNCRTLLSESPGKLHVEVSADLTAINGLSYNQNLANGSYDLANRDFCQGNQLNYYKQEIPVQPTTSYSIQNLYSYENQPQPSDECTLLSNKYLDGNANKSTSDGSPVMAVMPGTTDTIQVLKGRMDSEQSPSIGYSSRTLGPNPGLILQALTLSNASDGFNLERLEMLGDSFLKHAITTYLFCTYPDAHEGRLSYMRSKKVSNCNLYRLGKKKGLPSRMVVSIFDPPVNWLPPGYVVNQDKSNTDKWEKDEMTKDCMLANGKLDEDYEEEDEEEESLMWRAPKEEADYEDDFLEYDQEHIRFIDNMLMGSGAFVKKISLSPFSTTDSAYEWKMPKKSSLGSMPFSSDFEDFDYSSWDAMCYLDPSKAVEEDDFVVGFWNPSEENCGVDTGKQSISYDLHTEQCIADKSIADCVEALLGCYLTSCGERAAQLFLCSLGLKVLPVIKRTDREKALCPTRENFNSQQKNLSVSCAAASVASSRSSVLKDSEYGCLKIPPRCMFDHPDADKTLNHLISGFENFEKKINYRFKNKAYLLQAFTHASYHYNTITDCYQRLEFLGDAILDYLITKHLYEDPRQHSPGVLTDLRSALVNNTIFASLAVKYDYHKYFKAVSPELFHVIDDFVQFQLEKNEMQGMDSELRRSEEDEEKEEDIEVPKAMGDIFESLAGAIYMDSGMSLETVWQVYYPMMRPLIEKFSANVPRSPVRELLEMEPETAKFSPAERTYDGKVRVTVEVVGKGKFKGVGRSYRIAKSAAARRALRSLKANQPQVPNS

Tests used:
Experiment in all cases: pull-down
GFP-RBM3 (Homo sapiens) = molecular target: T1, GFP-RBM3 (Homo sapiens) (UniProt P98179); settings: protein in cells; protein details: copGFP fusion (pCDH-EF1-copGFP vector)
T1 sequence (looked up, limits assumed): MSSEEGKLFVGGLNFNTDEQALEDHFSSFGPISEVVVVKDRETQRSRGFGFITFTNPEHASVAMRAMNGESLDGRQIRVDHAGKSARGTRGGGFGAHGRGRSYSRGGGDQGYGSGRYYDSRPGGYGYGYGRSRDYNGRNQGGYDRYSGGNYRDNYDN

DICER (Homo sapiens) = DICER (Homo sapiens) (UniProt Q9UPY3); settings: protein in cells; protein details: endogenous, GSC nuclear lysate
RBM3 (Homo sapiens) = molecular target: T2, RBM3 (Homo sapiens) (UniProt P98179); settings: protein in cells; protein details: endogenous, GSC lysate
T2 sequence (looked up, limits assumed): T1 sequence (looked up, limits assumed)

Measured: binding result

GUCGUAUUUGUGAUUGAAGCUGAGUACAUUUUGCUGGUGUAUUUUUAGAAACUUUGUCUGCGA [circ2082 (hsa_circ_0002082)]
binds: all assays above
